## Primary screen of a compound library

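Assay of Toxoplasma gondii numbers, read through their beta-galactosidase reporter with a colour substrate. Compounds at 50 µM. Higher reads as fewer parasites (inferred from which compounds were picked for retests). Of about 18,000 compounds tested this way, about 170 (0.94%) reached 50% or more in at least one test.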

Each number is a percent effect as filed. The controls that fix the scale are not given in the record; negative values are as filed. Compounds were drawn at random from those tested, without regard to their results.

Compound	effect
O=C(CCN1C(=O)CCC1=O)Nc1ccc(F)cc1	6.107%
CCN(Cc1ccc(S(=O)(=O)N(C)C)o1)C1CC1	6.409%
Cc1cc(CNC(=O)N2CCSCC2)nc(C)n1	14.46%
CCOCCC1(C(=O)NC2=NCCS2)CCCC1	-3.232%
OCC1CN(c2ncc(Cl)cc2F)CCO1 (centres unmarked)	7.198%
CC(NC(=O)CCCN1CCCCC1)c1cnn(C)c1 (centres unmarked)	-7.07%
CC(C(=O)Nc1ccccn1)N(C)CC1(C)COC1 (centres unmarked)	-7.7%
CCS(=O)(=O)CCN1CC(Oc2ccc(C#N)cc2)C1	3.025%
CN(C)[C@@H]1CN(C(=O)c2ccco2)C[C@H]1CO	-6.142%
CCC(C#N)NC(=O)c1cccc(CN2CCCC2)c1 (centres unmarked)	-20.57%
CNc1ncccc1CN	-2.56%
CC(C)Cc1ccc(CNC(CO)CO)cc1	3.94%
COc1ccc(C(=O)N2CCNCC2)c(OC)c1	-5.158%
CNCC1CCCN(Cc2nccn2CCOC)C1 (centres unmarked)	-1.374%
CC(OC(=O)c1ccc2c(c1)OCO2)C(=O)NC1CC1 (centres unmarked)	-20.32%
Cc1cc(S(=O)(=O)NC(CN)C2CC2)c(F)cc1F (centres unmarked)	3.94%
CCNC(=O)N1CCN(c2ccncc2Cl)CC1	-0.2867%
Cc1cnc(C(=O)N2CCC(C)CC2)cn1	3.083%
NCc1noc(-c2ccc(Cl)cc2F)n1	-6.496%
CCc1nsc(NC2CCN(C(C)=O)C2)n1 (centres unmarked)	-10.01%
CCNC(=O)CNc1cc(C)c(Cl)cc1OC	-15.9%
CC(C)C(N)CCN(C)C(=O)CC(F)(F)F (centres unmarked)	26.17%
COCCc1ccc2oc(N)nc2c1	-16.07%
NC(=O)N1CCCC(C(=O)NCc2ccccc2)C1 (centres unmarked)	-6.073%
Cc1ccccc1NC(=O)Cn1cccn1	-3.516%
O=C1NCCCC12CCCCC2	-1.115%
CC1CCCN(Cn2nccc2-c2cccnc2)C1 (centres unmarked)	7.827%
O=C(Cc1cccs1)NCC(F)(F)F	-1.323%
CN(CCn1cccn1)CC(=O)Nc1ccc(Br)cn1	-1.732%
CNS(=O)(=O)c1ccc2c(c1)N(C(=O)C1(N)CC1)CC2	7.827%
Cc1cnc(N)c(C)c1	47.61%
CNc1cccc(S(C)(=O)=O)c1	-13.19%
N#Cc1cccc(C2CNCCO2)c1 (centres unmarked)	-3.228%
c1cc(CCN2CCSCC2)ccn1	-5.695%
O=C(NC1CCN(C2CCSCC2)CC1)c1ccon1	-4.925%
NC(=O)CNC(=O)c1cc(Cl)ccc1OC1CCCC1	15.59%
N#Cc1ccccc1NC(=O)CCN1CCCC(O)C1 (centres unmarked)	47.53%
CN(C)c1ccccc1CN1CCCCC1CC(N)=O (centres unmarked)	1.206%
CNC(=O)c1c(N)cnn1C	-1.357%
CC1CCN(C(=O)Cn2cncc(Br)c2=O)CC1	8.773%
Cc1csc(CCN)n1	13.06%
O=C(Nc1ncccn1)C1(c2ccccc2)CC1	6.96%
CCC(OC)C(=O)N1CC(Oc2ccccc2F)C1 (centres unmarked)	-7.864%
CNC(=O)[C@@H](C)Nc1nc(-c2ccccc2)ns1	3.386%
CCN1CCCC(C)(C(=O)NCCn2cccc2)C1 (centres unmarked)	-22.59%
NCC1CN(C2CC2)C(=O)O1 (centres unmarked)	-9.36%
CN1CCCCC1C(=O)N1CCOC2(CCCC2)C1 (centres unmarked)	-1.876%
NC(=O)c1ccc2c(c1)CCCN2	10.51%
Cc1cccn2cc(CC(=O)NC(C)C#N)nc12 (centres unmarked)	-13.63%
COc1cc(CN)cc(C)n1	6.927%
Cc1ccc(NC(C)C(=O)N2CCNC2=O)cc1F (centres unmarked)	-12.13%
CC(C)C(C)C(=O)NCCc1cncn1C (centres unmarked)	-5.925%
COCCNC(=O)CN1CCCC(C)C1 (centres unmarked)	-3.329%
CS(=O)(=O)NCC(=O)NCc1cnn2ccccc12	-11.78%

6 of the entries, repeated:

- Cc1cc(CNC(=O)N2CCSCC2)nc(C)n1 : 14.46%
- COc1cc(CN)cc(C)n1 : 6.927%
- CCN(Cc1ccc(S(=O)(=O)N(C)C)o1)C1CC1 : 6.409%
- O=C1NCCCC12CCCCC2 : -1.115%
- NCc1noc(-c2ccc(Cl)cc2F)n1 : -6.496%
- CC(C)Cc1ccc(CNC(CO)CO)cc1 : 3.94%

From ChEMBL document CHEMBL3988442, “University of Dundee, Small-Polar-MMV Screening Library” (2021).